{"sequences": {"note": "The chains behind the UniProt entries cited, without tags or fusion partners. Residues count along the entry.", "UniProt P02769, residues 25-607": "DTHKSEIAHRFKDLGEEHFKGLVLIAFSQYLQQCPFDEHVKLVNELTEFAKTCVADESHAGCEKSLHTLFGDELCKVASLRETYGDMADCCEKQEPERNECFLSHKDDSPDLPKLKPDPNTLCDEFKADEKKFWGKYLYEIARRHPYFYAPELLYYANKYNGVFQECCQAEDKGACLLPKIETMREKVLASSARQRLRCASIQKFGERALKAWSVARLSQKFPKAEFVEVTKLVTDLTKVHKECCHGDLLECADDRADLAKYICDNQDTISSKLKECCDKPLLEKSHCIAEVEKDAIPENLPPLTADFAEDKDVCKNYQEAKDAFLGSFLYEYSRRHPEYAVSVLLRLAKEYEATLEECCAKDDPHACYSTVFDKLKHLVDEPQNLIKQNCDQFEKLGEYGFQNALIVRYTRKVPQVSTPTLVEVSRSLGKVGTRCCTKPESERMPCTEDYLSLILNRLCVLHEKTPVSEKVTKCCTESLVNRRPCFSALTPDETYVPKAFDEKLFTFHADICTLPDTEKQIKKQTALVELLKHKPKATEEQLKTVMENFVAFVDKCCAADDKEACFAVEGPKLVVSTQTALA"}, "source": "patent CN111018985A", "binders": {"B1": {"name": "1C6 (VHH, not shown: small tags and cut ends)", "VHH": "QVQLQESGGGSVQAGGSLRLSCVVSGYAYSTNYMGWFRQAPGKEREGVAVIYTTVGTTYYADSVKGRFTISQDNAKNTVSLQMNSLQPEDTAMYYCAAVRRPWRLDSLDPSSFRYWGQGTQVTVSS"}, "B2": {"name": "1D6 (VHH, not shown: small tags and cut ends)", "VHH": "B1 VHH with S85G"}, "B3": {"name": "2D6 针对BSA的重组单域抗体 (人源Fc融合) (Fc fusion, 人源 (human), not shown: a dimerising Fc or GST; small tags and cut ends)", "chain": "QVQLQESGGGSVQTGGSLRLSCAASGNSDGAWSMGWFRQAPGKEREGVAALYVFTGITYYAGSVKGRFTISQDKAKNTVYLQMNSLKPEDTAMYYCAAGTAFPTLNRNKYNYWGQGTQVTVSS"}}, "key": {"牛血清白蛋白(BSA) (牛 (bovine)) [1]": {"biological_target": "牛血清白蛋白(BSA) (牛 (bovine)) (UniProt P02769)", "assay": "ELISA, 100 ng BSA coated, purified VHH, HRP anti-HA, OD450"}, "牛血清白蛋白(BSA) (牛 (bovine)) [2]": {"biological_target": "牛血清白蛋白(BSA) (牛 (bovine)) (UniProt P02769)", "assay": "ELISA, crude extract on BSA-Biotin captured by neutravidin, anti-HA detection; positive if OD > 5x control"}, "牛血清白蛋白(BSA) (牛 (bovine)) [3]": {"biological_target": "牛血清白蛋白(BSA) (牛 (bovine)) (UniProt P02769)", "assay": "ELISA, BSA coated, human Fc-fused VHH, HRP anti-human Fc, OD450"}}, "note": "Where a chain is given by its changes, count along the chain named. Results are given in words; binding and its absence hold for the method and conditions named. Some binding calls cover weakened binding; strength is not graded here.", "data": [{"binder": "B1", "values": [{"measurement": "binding", "setting": "牛血清白蛋白(BSA) (牛 (bovine)) [1]", "result": "binds"}, {"measurement": "binding", "setting": "牛血清白蛋白(BSA) (牛 (bovine)) [2]", "result": "binds"}]}, {"binder": "B2", "values": [{"measurement": "binding", "setting": "牛血清白蛋白(BSA) (牛 (bovine)) [1]", "result": "binds"}, {"measurement": "binding", "setting": "牛血清白蛋白(BSA) (牛 (bovine)) [2]", "result": "binds"}]}, {"binder": "B3", "values": [{"measurement": "binding", "setting": "牛血清白蛋白(BSA) (牛 (bovine)) [3]", "result": "binds"}]}]}
